Measured values published in US20050239134.
For some of these results: No signal at the amounts used counts as a negative. For some of these results: For at least one entry, the source does not settle the construct or the ends of the probe.

Chains of the proteins cited; added tags and fusions are not shown. Residues count along the entry.
UniProt P01137, 279-390: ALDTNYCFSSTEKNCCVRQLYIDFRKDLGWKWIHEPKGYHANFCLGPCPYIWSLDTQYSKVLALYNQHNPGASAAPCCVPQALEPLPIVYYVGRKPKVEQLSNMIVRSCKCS

Columns and labels:
[1] = target: T1, TGF-beta-1 (TGF-β1 homodimer) (Homo sapiens?) (UniProt P01137); assay: EMSA; settings: PS at dA and dC; monomer band negligible decrease up to 625 nM; purified recombinant protein; protein details: PeproTech (Rocky Hill, NJ); label: 3' biotin; single-stranded DNA
[2] = target: T1, TGF-beta-1 (TGF-β1 homodimer); assay: SELEX; settings: PS at dA and dC, purified recombinant protein, protein details: PeproTech (Rocky Hill, NJ), single-stranded DNA

Does “CAGTCCGGATGCTCTAGAGTGACGGTGAGGGTACATGTACACATCGACTCACACGAATCTCGTGAAGCCGAGCG [T5_14 monomeric form, bottom band]” bind [1]?
Result: no binding

Which selection result [2] does the source give for “CAGTCCGGATGCTCTAGAGTGACTGGAGGTGCCTGGATATATCGACTCGACCCCGAATCTCGTGAAGCCGAGCG [T18_1_9 family (15 of 42 round 18 clones)]” here?
The selection result was “selected”.

Does “CAGTCCGGATGCTCTAGAGTGACGTGAAAGTGCAATGGATCCAGGACCCCACACGAATCTCGTGAAGCCGAGCG [T9_5 monomeric form, bottom band]” bind [1]?
Result: no binding

Which selection result ([2]; second dominant clone after 18 rounds of filter selection in PBS, individual affinity not measured) does the source give for “CAGTCCGGATGCTCTAGAGTGACTGTCGTTGTGTCCTGTACCCGCCTTGACCACGAATCTCGTGAAGCCGAGCG [T18_1_3 family (11 of 42 round 18 clones)]” here?
Its selection result is “selected”.
